Assay results: the supplement of paper PMC9938546
Where a name gives a salt, the structure may show the parent alone. The list shows a part of the results. Part of the spread comes from offsets between plates or batches.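 HCT116-GFP is a human colorectal cancer cell line that carries a KRAS mutation, is microsatellite-unstable and always makes green fluorescent protein; the immune cells came from healthy donors. Live-cell imaging of the green signal stood in for cancer cell survival, and activated immune cells alone cut survival to about half.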

The compounds below were run on HCT116-GFP (assay: HCT116-GFP viability (GFP intensity) relative to untreated HCT116-GFP monoculture control, co-culture with activated PBMCs; higher = less cancer cell killing). Conditions: culture: co-culture with anti-CD3/IL2 activated PBMCs 1:1; 10 µM; 72 h.

| Compound | HCT116-GFP viability [%] |
| --- | --- |
| CCC(=O)O[C@@H](O[P@](=O)(CCCCc1ccccc1)CC(=O)N1C[C@H](C2CCCCC2)C[C@H]1C(=O)O)C(C)C [Fosinopril] | 33.4 |
| Nc1nc(Cl)nc2c1ncn2[C@H]1C[C@H](O)[C@@H](CO)O1 [Cladribine] | 16.7 |
| CN[C@@H]1[C@H](O[C@H]2[C@H](O[C@H]3[C@H](O)[C@@H](O)[C@H](N=C(N)N)[C@@H](O)[C@@H]3N=C(N)N)O[C@@H](C)[C@]2(O)C=O)O[C@@H](CO)[C@H](O)[C@H]1O [Streptomycin sulfate] | 48.8 |
| N=C(N)NC(=O)Cc1c(Cl)cccc1Cl [Guanfacine hydrochloride] | 22.5 |
| CC1CNc2c(cccc2S(=O)(=O)N[C@@H](CCCNC(=N)N)C(=O)N2CC[C@@H](C)C[C@@H]2C(=O)O)C1 (stereo not given in full) [Argatroban] | 47.9 |
| CN(C)CCN(Cc1ccccc1)c1ccccn1 [Tripelennamine hydrochloride] | 42.1 |
| Nc1ccn([C@@H]2O[C@H](CO)[C@@H](O)C2(F)F)c(=O)n1 [Gemcitabine] | 11.5 |
| CN1C(=O)CC(c2ccccc2)C1=O (stereo not given) [Phensuximide] | 45.8 |
| CC(=O)O[C@@]12CO[C@@H]1C[C@H](O)[C@@]1(C)C(=O)[C@H](O)C3=C(C)[C@@H](OC(=O)[C@H](O)[C@@H](NC(=O)OC(C)(C)C)c4ccccc4)C[C@@](O)([C@@H](OC(=O)c4ccccc4)[C@H]21)C3(C)C [Docetaxel] | 3.39 |
| Clc1ccc(CSC(Cn2ccnc2)c2ccc(Cl)cc2Cl)cc1 (stereo not given) [Sulconazole nitrate] | 45.4 |
| C[C@]12CC[C@@H]3c4ccc(O)cc4CC[C@H]3[C@@H]1CC[C@@H]2O [Estradiol-17 beta] | 60.8 |
| CCCN(CCC)S(=O)(=O)c1ccc(C(=O)O)cc1 [Probenecid] | 52.4 |
| CN(C)CCOC(c1ccccc1)c1ccccc1 [Diphenhydramine hydrochloride] | 61.5 |
| COc1ccc2[nH]c([S+]([O-])Cc3ncc(C)c(OC)c3C)nc2n1 (stereo not given) [Tenatoprazole] | 49.6 |
| CC(=O)[C@H]1CC[C@H]2[C@@H]3CCC4=CC(=O)CC[C@]4(C)[C@H]3CC[C@]12C [Progesterone] | 69.2 |
| CN(C)CC/C=C1/c2ccccc2Sc2ccc(Cl)cc21 [Chlorprothixene hydrochloride] | 69.6 |
| NC(Cc1cc(I)c(Oc2cc(I)c(O)c(I)c2)c(I)c1)C(=O)O (stereo not given) [Thyroxine (L)] | 33.9 |
| CC(=O)Oc1ccccc1C(=O)O [Acetylsalicylic acid] | 28 |
| N=C(N)NS(=O)(=O)c1ccc(N)cc1 [Sulfaguanidine] | 37.9 |
| CC1=C(/C=C/C(C)=C/C=C/C(C)=C/C(=O)O)C(C)(C)CCC1 [Retinoic acid] | 43 |
| NC(=O)c1cc[n+](CC2=C(C(=O)[O-])N3C(=O)[C@@H](NC(=O)[C@@H](c4ccccc4)S(=O)(=O)O)[C@H]3SC2)cc1 [Cefsulodin sodium salt] | 75.3 |
| CCc1c(C)[nH]c2c1C(=O)C(CN1CCOCC1)CC2 (stereo not given) [Molindone hydrochloride] | 50.8 |
| CCC1(c2ccccc2)NC(=O)N(C)C1=O (stereo not given) [Mephenytoin] | 18.3 |
| CC1(C)[C@H](C(=O)O)N2C(=O)C[C@H]2S1(=O)=O [Sulbactam] | 53.5 |

| Compound | HCT116-GFP viability [%] |
| --- | --- |
| Cc1ncc(CO)c(CO)c1O [Pyridoxine hydrochloride] | 40.7 |
| C#C[C@]1(OC(C)=O)CC[C@H]2[C@@H]3CCC4=CC(=NO)CC[C@@H]4[C@H]3CC[C@@]21CC (mixture of isomers) [Norgestimate] | 42.7 |
| Clc1ccc(CO/N=C(\Cn2ccnc2)c2ccc(Cl)cc2Cl)c(Cl)c1 [Oxiconazole Nitrate] | 50.1 |
| CC(=O)O[C@]1(C(C)=O)CC[C@H]2[C@@H]3C=C(Cl)C4=CC(=O)[C@@H]5C[C@@H]5[C@]4(C)[C@H]3CC[C@@]21C [Cyproterone acetate] | 35 |
| N[C@@H]1CONC1=O [D-cycloserine] | 33.2 |
| O=C(O)COCCN1CCN(C(c2ccccc2)c2ccc(Cl)cc2)CC1 (stereo not given) [Cetirizine dihydrochloride] | 32.5 |
| Clc1ccc(Cn2c(CN3CCCC3)nc3ccccc32)cc1 [Clemizole hydrochloride] | 56.9 |
| COc1cc2nc(N(C)CCCNC(=O)C3CCCO3)nc(N)c2cc1OC (stereo not given) [Alfuzosin hydrochloride] | 45.1 |
| O=C(O)c1cn(C2CC2)c2cc(N3CCNCC3)c(F)cc2c1=O [Ciprofloxacin hydrochloride monohydrate] | 41.1 |
| C#CCN[C@@H]1CCc2ccccc21 [Rasagiline] | 30 |
| COc1ccc(-c2cc(=S)ss2)cc1 [Anethole-trithione] | 21.3 |
| COc1cc(C(=O)NCc2ccc(OCCN(C)C)cc2)cc(OC)c1OC [Trimethobenzamide hydrochloride] | 38.7 |
| C1CCC(C(CC2CCCCN2)C2CCCCC2)CC1 (stereo not given) [Perhexiline maleate] | 1.55 |
| CCc1nc(N)nc(N)c1-c1ccc(Cl)cc1 [Pyrimethamine] | 41.2 |
| CC(=O)[C@@]1(O)CC[C@H]2[C@@H]3C[C@H](C)C4=CC(=O)C=C[C@]4(C)[C@@]3(F)[C@@H](O)C[C@@]21C [Fluorometholone] | 94.9 |
| CC(C)NCC(O)COc1ccc(CCOCC2CC2)cc1 (stereo not given) [Betaxolol hydrochloride] | 50.5 |
| C[C@H]1c2cccc(O)c2C(=O)C2=C(O)[C@]3(O)C(=O)C(C(N)=O)=C(O)[C@@H](N(C)C)[C@@H]3[C@@H](O)[C@@H]21 [Doxycycline hydrochloride] | 36.4 |
| CCCC1C(=O)N2C(N(C)C)=Nc3ccc(C)cc3N2C1=O (stereo not given) [Azapropazone] | 21.7 |
| Clc1ccc(C(Cn2ccnc2)OCc2ccsc2Cl)c(Cl)c1 (stereo not given) [Tioconazole] | 34.4 |
| C[C@](N)(Cc1ccc(O)c(O)c1)C(=O)O [Methyldopa (L,-)] | 55.7 |
| c1cnc(N2CCN(Cc3ccc4c(c3)OCO4)CC2)nc1 [Piribedil hydrochloride] | 33.1 |
| CCOC(=O)O[C@]1(C(=O)OCCl)CC[C@H]2[C@@H]3CCC4=CC(=O)C=C[C@]4(C)[C@H]3[C@@H](O)C[C@@]21C [Loteprednol etabonate] | 92.2 |
| Cc1ccc(NC(=O)c2ccc(CN3CCN(C)CC3)cc2)cc1Nc1nccc(-c2cccnc2)n1 [Imatinib] | 56.4 |
| CN[C@@H]1[C@H](O)[C@H](NC)[C@H]2O[C@@]3(O)C(=O)C[C@@H](C)O[C@H]3O[C@@H]2[C@H]1O [Spectinomycin dihydrochloride] | 70.6 |

| Compound | HCT116-GFP viability [%] |
| --- | --- |
| NS(=O)(=O)c1cc2c(cc1Cl)NC(C(Cl)Cl)NS2(=O)=O (stereo not given) [Trichlormethiazide] | 64 |
| C#Cc1cccc(Nc2ncnc3cc(OCCOC)c(OCCOC)cc23)c1 [Erlotinib] | 15.4 |
| Cc1onc(-c2ccccc2Cl)c1C(=O)N[C@@H]1C(=O)N2[C@@H]1SC(C)(C)[C@@H]2C(=O)O [Cloxacillin sodium salt] | 44.6 |
| N[C@@H](C(=O)N[C@@H]1C(=O)N2C(C(=O)O)=C(Cl)CC[C@H]12)c1ccccc1 [Loracarbef] | 30.8 |
| CC(C)Nc1cccnc1N1CCN(C(=O)c2cc3cc(NS(C)(=O)=O)ccc3[nH]2)CC1 [Delavirdine] | 45.8 |
| CN[C@@H]1[C@@H](O[C@H]2O[C@H](CO)[C@@H](N)[C@H](O)[C@H]2O)OC2C[C@@H](N)[C@@H](O[C@H]3[C@H](O)[C@@H](O)[C@H](N)C[C@@H]3N)OC2[C@@H]1O (stereo not given in full) [Apramycin] | 27.9 |
| Cc1c(-c2ccccc2)oc2c(C(=O)OCCN3CCCCC3)cccc2c1=O [Flavoxate hydrochloride] | 46.2 |
| CCOc1ccc2ccccc2c1C(=O)N[C@@H]1C(=O)N2[C@@H]1SC(C)(C)[C@@H]2C(=O)O [Nafcillin sodium salt monohydrate] | 81.1 |
| CC(C)(CO)C(O)C(=O)NCCCO (stereo not given) [Panthenol (D)] | 30.8 |
| CN(C)C/C=C(/c1ccc(Br)cc1)c1cccnc1 [Zimelidine dihydrochloride monohydrate] | 35.8 |
| CCN(CC)CCNC(=O)c1cc(Cl)c(N)cc1OC [Metoclopramide monohydrochloride] | 35.2 |
| Cn1cnc2c1c(=O)[nH]c(=O)n2C [Theobromine] | 75.7 |
| CCC[C@@H]1C[C@@H](C(=O)N[C@@H]([C@H]2O[C@H](SC)[C@H](O)[C@@H](O)[C@H]2O)[C@H](C)Cl)N(C)C1 [Clindamycin hydrochloride] | 30.7 |
| O=C(N[C@H](CO)[C@H](O)c1ccc([N+](=O)[O-])cc1)C(Cl)Cl [Chloramphenicol] | 53.4 |
| Cc1ccc2c(c1)c1c3n2CCNC3CCC1 (stereo not given) [Pirlindole mesylate] | 48 |
| C=C1/C(=C\C=C2/CCC[C@]3(C)[C@@H]([C@H](C)CCCC(C)C)CC[C@@H]23)C[C@@H](O)C[C@@H]1O [Alfacalcidol] | 43.3 |
| CC(C)[N+](C)(CCOC(=O)C1c2ccccc2Oc2ccccc21)C(C)C [Propantheline bromide] | 66.7 |
| CN(C)CCC=C1c2ccccc2COc2ccccc21 [Doxepin hydrochloride] | 50.9 |
| Nc1ccccc1S(N)(=O)=O [2-Aminobenzenesulfonamide] | 75 |
| COc1ccccc1Oc1c(NS(=O)(=O)c2ccc(C(C)(C)C)cc2)nc(-c2ncccn2)nc1OCCO [Bosentan] | 38.4 |
| COc1ccccc1OCC(O)CO (stereo not given) [Guaifenesin] | 71.6 |
| NC[C@@H]1O[C@H](O[C@H]2[C@@H](O)[C@H](O[C@@H]3[C@@H](O)[C@H](N)C[C@H](N)[C@H]3O[C@H]3O[C@H](CO)[C@@H](O)[C@H](O)[C@H]3N)O[C@@H]2CO)[C@H](N)[C@@H](O)[C@@H]1O [Paromomycin sulfate] | 85.1 |

5 of the compounds above, with bars between the fields:
Compound | HCT116-GFP viability [%]
CCC(=O)O[C@@H](O[P@](=O)(CCCCc1ccccc1)CC(=O)N1C[C@H](C2CCCCC2)C[C@H]1C(=O)O)C(C)C [Fosinopril] | 33.4
COc1cc2nc(N(C)CCCNC(=O)C3CCCO3)nc(N)c2cc1OC (stereo not given) [Alfuzosin hydrochloride] | 45.1
N[C@@H](C(=O)N[C@@H]1C(=O)N2C(C(=O)O)=C(Cl)CC[C@H]12)c1ccccc1 [Loracarbef] | 30.8
COc1ccccc1OCC(O)CO (stereo not given) [Guaifenesin] | 71.6
NC[C@@H]1O[C@H](O[C@H]2[C@@H](O)[C@H](O[C@@H]3[C@@H](O)[C@H](N)C[C@H](N)[C@H]3O[C@H]3O[C@H](CO)[C@@H](O)[C@H](O)[C@H]3N)O[C@@H]2CO)[C@H](N)[C@@H](O)[C@@H]1O [Paromomycin sulfate] | 85.1
